From publication doi:10.1101/2025.10.19.683266

T1: AGIA-AirID-Pbdc1 isoform 1 (mouse) (UniProt Q9D0B6)
T1 sequence: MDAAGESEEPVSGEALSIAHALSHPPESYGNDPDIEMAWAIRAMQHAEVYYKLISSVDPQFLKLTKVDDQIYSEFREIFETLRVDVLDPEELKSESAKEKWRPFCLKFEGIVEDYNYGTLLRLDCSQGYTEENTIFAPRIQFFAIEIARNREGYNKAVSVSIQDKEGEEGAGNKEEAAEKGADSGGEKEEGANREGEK


Target: T1, AGIA-AirID-Pbdc1 isoform 1 (mouse)
Assay: proximity labelling

binding | Molecule
binds | HNRNPK (from UniProt P61979 1-463)
binds | SNRPA1 (protein, UniProt P57784 1-255) MVKLTAELIEQAAQYTNAVRDRELDLRGYKIPVIENLGATLDQFDAIDFSDNEIRKLDGFPLLRRLKTLLVNNNRICRIGEGLDQALPCLTELILTNNSLVELGDLDPLASLKSLTYLSILRNPVTNKKHYRLYVIYKVPQVRVLDFQKVKLKERQEAEKMFKGKRGAQLAKDIARRSKTFNPGAGLPTDKKKGGPSAGDVEAIKNAIANASTLAEVERLKGLLQSGQIPGRERRSGPSDEGEEEIEDDTVTNGS
binds | SART1 (protein, UniProt Q9Z315 1-806) MGSSKKHRGEKEAAGTTAAAGTGGTTEQPPRHREHKKHKHRSSGGGSSGGERRKRSRERGSERGSGRRGAEAEARSGAHGRERSQAEPSERRVKREKRDDGYEAAASSKASSGDASSLSIEETNKLRAKLGLKPLEVNAVKKEAGTKEEPVAADVINPMALRQREELREKLAAAKEKRLLNQKLGKIKTLGEDDPWLDDTAAWIERSRQLQKEKDLAEKRAKLLEEMDQEFGVSTLVEEEFEQRRQDLYSARDLQGLTVEHAIDSFREGETVVLTLKDKGVLQDGEDVLVNVNMVDKERADKNVELRKKKPDYLPYAEDESVDDLAQQKPRSILAKYDEELEGERPHSFRLEQGGMADGLRERELEEIRTKLRLQAQSLSSVGPRLASEYLSPEEMVTFKKTKRRVKKIRKKEKEVIMRADDLLPLGDQTQDGDFGSRLRGRGRRRVPEVEEEALEDEEKDPVAQPPPSDDTRVENMDISDEEDGGALPPGSPEGLEEDEAELELQKQLEKGRRLRQLQQLQQLRDSGEKVLEIVKKLESRQRGWEEEEDPERKGTIVFNATSEFCRTLGEIPTYGLAGNREEQEELMDFERDEERSANGGSESDGEENIGWSTVNLDEEKQHQDFSASSTTILDEEPIVNRGLAAALLLCQNKGLLETTVQKVARVKAPNKSLPSAVYCIEDKMAIDDKYSRREEYRGFTQDFKEKDGYKPDVKIEYVDETGRKLTPKEAFRQLSHRFHGKGSGKMKTERRMKKLDEEALLKKMSSSDTPLGTVALLQEKQKAQKTPYIVLSGSGKSMNANTITK

No constants are given. Whether binding was seen depends on the method and setting. Binding seen in cells or lysates may run through a third protein. Here binding means that the protein was enriched with, or labelled near, the bait; the list need not be complete.
